Measured values: paper doi:10.1101/780452
No constants are given. Whether binding was seen depends on the method and setting. Some results given as binding are weak or reduced against the parent protein; the word gives no strength. Sequences can lack the tags named with a protein.

Molecular target: BSA-Man (glycoprotein bearing 12 glycosylated sites) (bovine (from the name BSA)), P02769
Assay: SPR
Settings: remark: other sources report otherwise

- binding: binds
B1: DC-SIGN ECD (construct without StreptagII), Q9NNX6 59-404 (domain or fragment)
chain: QVSKVPSSISQEQSRQDAIYQNLTQLKAAVGELSEKSKLQEIYQELTQLKAAVGELPEKSKLQEIYQELTRLKAAVGELPEKSKLQEIYQELTWLKAAVGELPEKSKMQEIYQELTRLKAAVGELPEKSKQQEIYQELTRLKAAVGELPEKSKQQEIYQELTRLKAAVGELPEKSKQQEIYQELTQLKAAVERLCHPCPWEWTFFQGNCYFMSNSQRNWHDSITACKEVGAQLVVIKSAEEQNFLQLQSSRSNRFTWMGLSDLNQEGTWQWVDGSPLLPSFKQYWNRGEPNNVGEEDCAEFSGNGWNDDKCNLAKFWICKKSAASCSRDEEQFLSPAPATPNPPPA
modifications: here or on the partner: 12 glycosylated sites (mannose glycans, up to 12 glycans displayed)
